# Laboratory results: the supplement of paper PMC11006884
# Protein sequences, listed by entry. Tags and fused reporters are not part of them. Lines headed by an entry give the natural chain unless they say otherwise; changes in a name come on top.
# UniProt Q14692: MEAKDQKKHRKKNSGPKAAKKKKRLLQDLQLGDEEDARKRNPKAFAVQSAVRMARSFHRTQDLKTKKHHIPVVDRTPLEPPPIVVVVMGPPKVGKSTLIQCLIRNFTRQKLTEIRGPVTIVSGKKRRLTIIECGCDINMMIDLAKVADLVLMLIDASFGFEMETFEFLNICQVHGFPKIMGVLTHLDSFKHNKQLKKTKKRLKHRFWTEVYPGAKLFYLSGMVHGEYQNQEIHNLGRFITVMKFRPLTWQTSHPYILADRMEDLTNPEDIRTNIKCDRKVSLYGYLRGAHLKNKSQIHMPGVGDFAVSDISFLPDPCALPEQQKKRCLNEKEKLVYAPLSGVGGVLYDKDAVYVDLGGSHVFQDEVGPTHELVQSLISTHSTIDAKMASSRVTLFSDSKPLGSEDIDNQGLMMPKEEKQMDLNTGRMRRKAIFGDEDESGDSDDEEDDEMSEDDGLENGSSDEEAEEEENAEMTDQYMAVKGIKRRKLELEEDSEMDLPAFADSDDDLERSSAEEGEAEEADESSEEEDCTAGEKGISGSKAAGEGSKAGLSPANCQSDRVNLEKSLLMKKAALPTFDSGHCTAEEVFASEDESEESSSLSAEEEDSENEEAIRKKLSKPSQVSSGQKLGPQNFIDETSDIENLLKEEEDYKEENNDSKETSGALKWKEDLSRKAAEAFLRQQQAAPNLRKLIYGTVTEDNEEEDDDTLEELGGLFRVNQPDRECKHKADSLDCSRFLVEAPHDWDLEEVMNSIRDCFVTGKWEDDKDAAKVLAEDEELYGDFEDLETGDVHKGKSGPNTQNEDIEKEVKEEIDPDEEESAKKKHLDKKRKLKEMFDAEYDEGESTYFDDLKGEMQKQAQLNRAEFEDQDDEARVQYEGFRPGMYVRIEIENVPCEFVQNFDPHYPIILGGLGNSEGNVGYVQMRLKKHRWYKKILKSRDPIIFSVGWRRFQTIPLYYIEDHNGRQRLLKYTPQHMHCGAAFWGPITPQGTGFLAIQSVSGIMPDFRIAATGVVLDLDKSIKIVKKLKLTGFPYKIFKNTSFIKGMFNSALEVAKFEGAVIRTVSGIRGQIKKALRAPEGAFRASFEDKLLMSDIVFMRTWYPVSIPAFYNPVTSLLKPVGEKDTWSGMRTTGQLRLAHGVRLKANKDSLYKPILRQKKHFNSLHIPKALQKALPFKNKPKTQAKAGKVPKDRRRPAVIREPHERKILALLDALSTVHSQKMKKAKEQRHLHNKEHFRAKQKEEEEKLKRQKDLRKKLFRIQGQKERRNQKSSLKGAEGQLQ
# UniProt Q14202: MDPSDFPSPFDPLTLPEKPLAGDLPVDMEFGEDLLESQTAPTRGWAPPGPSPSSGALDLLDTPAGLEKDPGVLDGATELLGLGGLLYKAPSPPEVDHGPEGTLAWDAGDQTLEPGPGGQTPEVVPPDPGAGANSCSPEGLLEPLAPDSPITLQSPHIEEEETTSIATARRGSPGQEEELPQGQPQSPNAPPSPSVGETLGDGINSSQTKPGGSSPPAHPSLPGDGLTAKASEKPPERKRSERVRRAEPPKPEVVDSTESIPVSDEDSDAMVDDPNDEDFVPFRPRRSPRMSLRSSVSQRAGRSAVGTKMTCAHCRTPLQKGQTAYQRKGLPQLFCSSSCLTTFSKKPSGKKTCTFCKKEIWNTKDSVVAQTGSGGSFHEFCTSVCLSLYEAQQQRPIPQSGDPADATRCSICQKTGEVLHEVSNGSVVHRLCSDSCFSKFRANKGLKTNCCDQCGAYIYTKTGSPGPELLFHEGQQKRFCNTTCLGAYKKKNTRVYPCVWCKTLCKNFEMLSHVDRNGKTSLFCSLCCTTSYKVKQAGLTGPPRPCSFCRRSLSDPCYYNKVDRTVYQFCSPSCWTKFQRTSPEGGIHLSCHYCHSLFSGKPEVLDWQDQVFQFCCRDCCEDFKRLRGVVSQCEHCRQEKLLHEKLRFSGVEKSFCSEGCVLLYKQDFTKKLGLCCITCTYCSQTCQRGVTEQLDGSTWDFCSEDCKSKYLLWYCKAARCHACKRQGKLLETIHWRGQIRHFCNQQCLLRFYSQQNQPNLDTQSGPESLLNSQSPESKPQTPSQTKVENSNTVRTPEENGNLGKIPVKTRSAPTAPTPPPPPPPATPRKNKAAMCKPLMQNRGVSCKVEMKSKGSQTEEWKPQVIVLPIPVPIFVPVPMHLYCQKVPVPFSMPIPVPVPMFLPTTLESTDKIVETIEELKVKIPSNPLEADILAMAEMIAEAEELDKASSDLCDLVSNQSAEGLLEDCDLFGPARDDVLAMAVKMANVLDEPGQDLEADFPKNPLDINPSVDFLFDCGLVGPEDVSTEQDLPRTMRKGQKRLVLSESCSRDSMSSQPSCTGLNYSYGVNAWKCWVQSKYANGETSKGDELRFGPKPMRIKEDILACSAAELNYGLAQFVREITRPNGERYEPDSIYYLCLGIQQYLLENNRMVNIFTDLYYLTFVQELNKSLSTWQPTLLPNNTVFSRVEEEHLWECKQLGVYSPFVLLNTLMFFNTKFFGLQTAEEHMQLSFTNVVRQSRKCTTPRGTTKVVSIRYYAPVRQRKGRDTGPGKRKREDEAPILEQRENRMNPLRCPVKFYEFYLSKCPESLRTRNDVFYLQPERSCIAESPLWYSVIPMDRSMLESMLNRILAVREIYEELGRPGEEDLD
# UniProt Q14657: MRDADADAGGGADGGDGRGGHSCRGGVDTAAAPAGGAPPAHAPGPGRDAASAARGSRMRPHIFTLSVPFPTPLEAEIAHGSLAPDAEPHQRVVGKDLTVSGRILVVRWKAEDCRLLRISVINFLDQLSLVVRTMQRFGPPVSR
# UniProt Q14807: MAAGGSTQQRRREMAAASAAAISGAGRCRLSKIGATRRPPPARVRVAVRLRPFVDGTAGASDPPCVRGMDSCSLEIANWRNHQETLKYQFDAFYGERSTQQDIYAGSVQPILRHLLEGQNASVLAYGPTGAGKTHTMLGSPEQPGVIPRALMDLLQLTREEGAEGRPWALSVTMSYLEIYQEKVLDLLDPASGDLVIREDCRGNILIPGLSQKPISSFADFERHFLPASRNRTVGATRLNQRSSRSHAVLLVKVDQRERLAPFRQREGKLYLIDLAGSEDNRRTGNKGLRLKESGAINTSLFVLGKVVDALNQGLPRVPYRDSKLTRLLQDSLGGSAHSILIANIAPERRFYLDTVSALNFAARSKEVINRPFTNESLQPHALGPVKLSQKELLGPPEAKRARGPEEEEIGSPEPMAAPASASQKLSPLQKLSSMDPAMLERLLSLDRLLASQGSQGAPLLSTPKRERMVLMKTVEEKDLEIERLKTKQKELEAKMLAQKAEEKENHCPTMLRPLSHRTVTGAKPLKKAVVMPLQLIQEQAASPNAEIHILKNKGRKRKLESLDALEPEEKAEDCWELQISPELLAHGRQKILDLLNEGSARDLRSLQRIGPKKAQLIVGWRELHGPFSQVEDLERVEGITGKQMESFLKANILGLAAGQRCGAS
# UniProt Q14694, whole entry, looked up: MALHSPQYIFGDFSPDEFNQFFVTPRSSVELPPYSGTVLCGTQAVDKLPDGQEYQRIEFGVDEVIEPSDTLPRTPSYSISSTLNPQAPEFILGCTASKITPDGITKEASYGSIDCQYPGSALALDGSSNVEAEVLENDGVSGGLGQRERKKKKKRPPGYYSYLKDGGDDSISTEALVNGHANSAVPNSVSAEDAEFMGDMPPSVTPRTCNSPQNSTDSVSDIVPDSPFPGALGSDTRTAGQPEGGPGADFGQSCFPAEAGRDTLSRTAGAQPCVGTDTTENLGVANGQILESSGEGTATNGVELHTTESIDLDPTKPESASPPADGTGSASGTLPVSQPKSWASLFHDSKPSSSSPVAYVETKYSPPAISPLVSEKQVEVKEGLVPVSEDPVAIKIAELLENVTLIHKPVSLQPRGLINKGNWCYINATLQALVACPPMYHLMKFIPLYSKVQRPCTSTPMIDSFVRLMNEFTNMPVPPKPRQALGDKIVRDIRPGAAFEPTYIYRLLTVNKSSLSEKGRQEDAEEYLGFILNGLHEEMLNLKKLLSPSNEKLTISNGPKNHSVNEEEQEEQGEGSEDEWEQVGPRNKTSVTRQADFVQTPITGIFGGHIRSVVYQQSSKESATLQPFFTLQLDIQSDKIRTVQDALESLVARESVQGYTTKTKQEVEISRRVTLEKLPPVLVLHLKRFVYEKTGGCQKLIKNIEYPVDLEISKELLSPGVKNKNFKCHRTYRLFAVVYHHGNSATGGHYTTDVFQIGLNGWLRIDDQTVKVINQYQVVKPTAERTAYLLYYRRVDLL
# UniProt Q14676: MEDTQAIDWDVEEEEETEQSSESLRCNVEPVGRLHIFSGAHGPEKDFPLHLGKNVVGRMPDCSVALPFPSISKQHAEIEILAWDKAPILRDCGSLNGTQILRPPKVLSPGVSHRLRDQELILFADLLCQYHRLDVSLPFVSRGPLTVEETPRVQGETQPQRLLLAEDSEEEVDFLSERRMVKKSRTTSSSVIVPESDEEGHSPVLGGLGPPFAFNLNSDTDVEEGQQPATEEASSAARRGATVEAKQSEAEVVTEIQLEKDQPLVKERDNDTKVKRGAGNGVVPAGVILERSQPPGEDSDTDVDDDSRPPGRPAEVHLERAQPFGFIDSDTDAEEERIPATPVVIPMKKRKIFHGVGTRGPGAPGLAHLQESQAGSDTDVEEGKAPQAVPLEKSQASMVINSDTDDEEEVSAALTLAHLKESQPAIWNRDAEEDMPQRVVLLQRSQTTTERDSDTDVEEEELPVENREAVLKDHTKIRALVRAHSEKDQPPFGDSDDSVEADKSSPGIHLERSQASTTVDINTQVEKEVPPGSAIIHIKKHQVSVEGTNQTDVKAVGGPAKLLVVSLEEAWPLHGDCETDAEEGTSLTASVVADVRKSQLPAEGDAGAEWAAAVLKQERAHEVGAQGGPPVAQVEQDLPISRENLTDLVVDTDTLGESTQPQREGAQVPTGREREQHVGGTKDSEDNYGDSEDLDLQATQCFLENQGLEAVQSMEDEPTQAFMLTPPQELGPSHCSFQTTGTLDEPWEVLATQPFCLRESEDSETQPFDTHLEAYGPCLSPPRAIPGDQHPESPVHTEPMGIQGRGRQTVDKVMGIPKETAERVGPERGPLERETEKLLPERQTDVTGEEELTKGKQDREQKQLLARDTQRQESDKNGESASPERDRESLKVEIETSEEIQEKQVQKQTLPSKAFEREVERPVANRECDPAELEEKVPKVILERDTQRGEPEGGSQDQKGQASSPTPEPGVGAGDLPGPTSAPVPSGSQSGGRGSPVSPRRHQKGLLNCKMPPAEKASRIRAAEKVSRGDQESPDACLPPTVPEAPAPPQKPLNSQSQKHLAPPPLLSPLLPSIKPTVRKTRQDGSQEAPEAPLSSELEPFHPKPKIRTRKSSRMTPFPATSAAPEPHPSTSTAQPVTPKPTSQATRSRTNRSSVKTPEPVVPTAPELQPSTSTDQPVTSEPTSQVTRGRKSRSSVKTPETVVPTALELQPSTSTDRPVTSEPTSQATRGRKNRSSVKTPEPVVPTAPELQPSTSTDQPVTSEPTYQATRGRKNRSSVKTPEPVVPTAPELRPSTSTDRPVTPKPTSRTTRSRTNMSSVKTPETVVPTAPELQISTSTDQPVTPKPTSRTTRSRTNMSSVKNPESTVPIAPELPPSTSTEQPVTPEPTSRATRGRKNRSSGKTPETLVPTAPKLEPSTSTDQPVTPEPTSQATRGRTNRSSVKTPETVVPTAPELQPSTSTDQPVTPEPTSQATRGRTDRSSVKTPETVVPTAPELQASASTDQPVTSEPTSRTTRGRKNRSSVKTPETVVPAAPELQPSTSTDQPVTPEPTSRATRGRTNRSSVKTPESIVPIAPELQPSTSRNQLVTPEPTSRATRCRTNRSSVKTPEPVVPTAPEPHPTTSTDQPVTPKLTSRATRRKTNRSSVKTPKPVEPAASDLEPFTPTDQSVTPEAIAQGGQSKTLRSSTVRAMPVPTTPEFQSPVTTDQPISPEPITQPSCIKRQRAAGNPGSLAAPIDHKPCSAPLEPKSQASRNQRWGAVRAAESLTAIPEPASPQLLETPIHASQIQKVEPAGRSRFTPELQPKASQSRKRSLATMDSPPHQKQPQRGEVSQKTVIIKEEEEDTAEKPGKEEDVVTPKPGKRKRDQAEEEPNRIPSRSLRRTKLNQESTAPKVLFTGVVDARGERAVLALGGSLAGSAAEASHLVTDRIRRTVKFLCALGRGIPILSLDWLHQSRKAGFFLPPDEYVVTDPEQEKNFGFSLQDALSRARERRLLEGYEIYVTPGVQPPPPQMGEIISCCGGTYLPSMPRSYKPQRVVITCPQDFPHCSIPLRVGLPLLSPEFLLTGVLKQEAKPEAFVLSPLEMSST
# The list shows a part of the results, in another mix than the full data.
# Compound: COC(=O)C#Cc1ccccc1 [methyl 3-phenylpropiolate]
# Experiment: log2 ratio of iodoacetamide-alkyne labeling of the cysteine site, DMSO over compound (competition); higher = stronger covalent engagement of the cysteine by the compound, active = 1 or more
# Settings: 500 µM; treatment time 1 h; system: HEK293T cell lysate
# Summary of the method: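 For each cysteine, the log2 competition ratio is mean control-channel reporter intensity over mean compound-channel reporter intensity. HEK293T lysate (2 mg/mL) was exposed to vehicle or electrophile (500 µM, 1 h, ambient temperature), labelled with iodoacetamide alkyne (1 h), clicked to sCIP-TMT reagents, digested overnight with trypsin at 37 °C, streptavidin-enriched and analysed by Orbitrap Eclipse LC-MS/MS with FAIMS and FragPipe. Cysteines quantified in only one of three replicates, each with duplicate channels, were excluded.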
row,Target,log2 ratio of iodoacetamide-alkyne labeling
1,POLA2 C198 (UniProt Q14181),inactive: 0.169
2,BMS1 C725 (UniProt Q14692),active: 1.27
3,STIM1 C49 (UniProt Q13586),inactive: 0.691
4,HLTF C461 (UniProt Q14527),inactive: 0.799
5,DYNC1H1 C633 (UniProt Q14204),inactive: 0.785
6,NUMA1 C1907 (UniProt Q14980),inactive: 0.551
7,NPAT C551 (UniProt Q14207),inactive: 0.356
8,ZMYM3 C1326 (UniProt Q14202),inactive: 0.196
9,LAGE3 C23 (UniProt Q14657),inactive: 0.594
10,BLMH C73 (UniProt Q13867),inactive: -0.00658
11,SQSTM1 C27 (UniProt Q13501),inactive: 0.699
12,FHL1 C191 (UniProt Q13642),inactive: -0.117
13,KIF22 C575 (UniProt Q14807),inactive: 0.118
14,USP10 C254 (UniProt Q14694),inactive: 0.49
15,MDC1 C1742 (UniProt Q14676),inactive: 0.0644
16,NCAPH C296 (UniProt Q15003),inactive: 0.0103
17,BYSL C381 (UniProt Q13895),inactive: 0.345
18,BMS1 C101 (UniProt Q14692),inactive: 0.0847
19,PDCD11 C151 (UniProt Q14690),inactive: 0.508
20,MDC1 C1720 (UniProt Q14676),inactive: 0.5
21,URB2 C1132 (UniProt Q14146),inactive: -0.159

# Random excerpt: 2 entries already listed, in no set order.
row,Target,log2 ratio of iodoacetamide-alkyne labeling
14,USP10 C254 (UniProt Q14694),inactive: 0.49
16,NCAPH C296 (UniProt Q15003),inactive: 0.0103
